This experiment has as its target T1, FLAG-tagged NDP52 (nuclear dot protein 52 / calcium binding and coiled-coil domain protein, CALCOCO2) (UniProt Q13137).
T1 sequence: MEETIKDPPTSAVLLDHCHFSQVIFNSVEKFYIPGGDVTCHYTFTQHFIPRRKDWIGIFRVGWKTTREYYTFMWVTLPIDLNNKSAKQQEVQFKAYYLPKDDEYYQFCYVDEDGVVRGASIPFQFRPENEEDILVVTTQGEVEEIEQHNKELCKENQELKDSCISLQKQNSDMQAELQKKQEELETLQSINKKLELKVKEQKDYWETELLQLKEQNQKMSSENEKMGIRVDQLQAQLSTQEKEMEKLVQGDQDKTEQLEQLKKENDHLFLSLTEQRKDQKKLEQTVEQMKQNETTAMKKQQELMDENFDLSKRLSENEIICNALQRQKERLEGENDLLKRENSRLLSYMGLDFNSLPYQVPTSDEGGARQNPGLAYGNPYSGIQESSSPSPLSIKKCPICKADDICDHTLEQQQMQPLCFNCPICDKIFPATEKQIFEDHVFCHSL
Description: co-IP; HEK293T co-transfected for 48 h with pcDNA-FLAG-NDP52 and a GFP construct; lysis buffer 150 mM NaCl, 10 mM Tris pH 7.4, 1 mM EDTA, 1% Triton X-100, 0.5% NP-40; FLAG mouse antibody overnight at 4°C, protein G magnetic beads; immunoblot.

Results are given in words; binding and its absence hold for the method and conditions named. Binding seen in cells or lysates may run through a third protein. Some entries that bind do so weakly or less than the wild type. Where a sequence is shown, tags or fusion partners need not be part of it.

B1: GFP-tagged Pat1b (protein, UniProt Q86TB9 1-770)
chain: MFRYESLEDCPLDEDEDAFQGLGEEDEEIDQFNDDTFGSGAVDDDWQEAHERLAELEEKLPVAVNEQTGNGERDEMDLLGDHEENLAERLSKMVIENELEDPAIMRAVQTRPVLQPQPGSLNSSIWDGSEVLRRIRGPLLAQEMPTVSVLEYALPQRPPQGPEDDRDLSERALPRRSTSPIIGSPPVRAVPIGTPPKQMAVPSFTQQILCPKPVHVRPPMPPRYPAPYGERMSPNQLCSVPNSSLLGHPFPPSVPPVLSPLQRAQLLGGAQLQPGRMSPSQFARVPGFVGSPLAAMNPKLLQGRVGQMLPPAPGFRAFFSAPPSATPPPQQHPPGPGPHLQNLRSQAPMFRPDTTHLHPQHRRLLHQRQQQNRSQHRNLNGAGDRGSHRSSHQDHLRKDPYANLMLQREKDWVSKIQMMQLQSTDPYLDDFYYQNYFEKLEKLSAAEEIQGDGPKKERTKLITPQVAKLEHAYKPVQFEGSLGKLTVSSVNNPRKMIDAVVTSRSEDDETKEKQVRDKRRKTLVIIEKTYSLLLDVEDYERRYLLSLEEERPALMDDRKHKICSMYDNLRGKLPGQERPSDDHFVQIMCIRKGKRMVARILPFLSTEQAADILMTTARNLPFLIKKDAQDEVLPCLLSPFSLLLYHLPSVSITSLLRQLMNLPQSAATPALSNPHLTAVLQNKFGLSLLLILLSRGEDLQSSDPATESTQNNQWTEVMFMATRELLRIPQAALAKPISIPTNLVSLFSRYVDRQKLNLLETKLQLVQGIR
Consider B1, for which the binding result was “binds”.

Source of the values: publication PMC9876383.
